How the values were obtained:
[1] = system: Dynal M270-streptavidin bound biotinylated monoclonal mouse anti-cTnI antibody; assay: Fractional non-specific binding (fNSB) of chemiluminescent conjugates to M270 solid phase
PMP-anti-TSH antibody = assay: Fractional non-specific binding (fNSB) of chemiluminescent conjugates to PMP solid phase; conditions: for fNSB, Solid Phase PMP: Table 3, NSP-DMAE-AVD, # of zwitterionic labels in input 0
[2] = system: Dynal M280-streptavidin bound biotinylated polyclonal goat anti-PTH antibody; assay: Fractional non-specific binding (fNSB) of chemiluminescent conjugates to M280 solid phase
[3] = conjugate further labeled with 25 equivalents of Z3-PFP, 10 minutes incubation
[4] = Table 3, NSP-DMAE-AVD, # of zwitterionic labels in input 0
[5] = conjugate labeled only with NSP-DMAE, 10 minutes incubation

Substance | fNSB, Solid Phase M270, Z3-PFP Modified [1, 3] | fNSB, Solid Phase PMP, Z3-PFP Modified (PMP-anti-TSH antibody; [3]) | fNSB, Solid Phase M280, Z3-PFP Modified [2, 3] | fNSB, Solid Phase M270 [1, 4] | fNSB, Solid Phase M270, Unmodified [1, 5] | fNSB, Solid Phase PMP (PMP-anti-TSH antibody; listed as Control) | fNSB, Solid Phase PMP (PMP-anti-TSH antibody; listed as NSP-DMAE-avidin) | fNSB, Solid Phase PMP, Unmodified (PMP-anti-TSH antibody; [5]) | fNSB, Solid Phase M280 [2, 4] | fNSB, Solid Phase M280, Unmodified [2, 5]
NSP-DMAE-AVD Z3-PFP Modified: acridinium ester-labeled avidin further labeled with 25 equivalents of Z3-PFP, compound 2c | 5.2 x 10^-4 | 1.7 x 10^-4 | 8.3 x 10^-5 | – | – | – | – | – | – | –
NSP-DMAE-AVD: egg white avidin (AVD) labeled with 10 equivalents of the acridinium ester NSP-DMAE | – | – | – | 2.4 x10^-3 | 6.3 x 10^-2 | 1.1 x10^-3 | 1.3 x 10^-3 | 1.3 x 10^-3 | 1.8 x10^-4 | 1.6 x 10^-4

— EP4800020A2, “ZWITTERIONIC REAGENTS” (Siemens Healthcare Diagnostics, Inc., priority 2010, dated 2011)
